From patent US20250216395A1
Results are given in words; binding and its absence hold for the method and conditions named.

Molecular target: aNRP2-36v2
Experiment: Western blot competition: 1 ug/mL aNRP2-36v2 with 5 ug/mL control peptide, detection of NRP2v2 (23-855) and of NRP2a isoform 2 in lysate

binding: no binding (tested: 5 ug/mL)
Binder: VDIPEIHEREGY [control peptide]
